PubChem BioAssay AID686938 | Drosophila RNAi Screening Center – 2013
Assay: 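Knock-downs reducing store-operated calcium influx in Drosophila cells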 (primary screen). Cell system: Drosophila S2R+ cells. Reagents: long dsRNA against Drosophila genes, about 0.25 µg dsRNA per well, roughly 10,000 cells. Time to read-out: 5 days of knock-down before the calcium assay. Challenge: thapsigargin (SERCA pump blocker) to empty calcium stores; entry signal taken 4 min after adding it. Measured: 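Duplicate raw fluo-4 intensities per well from a plate reader, at rest and four minutes after thapsigargin emptied calcium stores; entry-to-rest ratio filled for only some wells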. Direction: calcium entry signal: higher = stronger calcium signal after store depletion; entry to resting ratio: higher = more calcium entry relative to resting level; resting calcium signal: higher = higher resting calcium signal. Hit rule: 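Called when the plate z-score of the entry-to-rest ratio, mean of duplicates, falls below −3; wells with low overall dye signal (Fmax z below −2) or more than five off-targets excluded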. Calls: active = strongly reduced calcium entry; inactive = no strong reduction.
In all, the deposit lists about 23,000 reagents; this is a random part of those that have a named target and a result. In the full data, 75 (0.33%) were called active. 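Raw plate signals without normalisation; calls rest on plate z-scores that were not deposited; ratio present for only 364 wells.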 Entries without a mark were called inactive. A plus sign joins genes that one reagent is predicted to hit. Not stated in the record: the dose of the treatment.

| gene knocked down | dsRNA | calcium entry signal, replicate 1 (fluorescence units) | calcium entry signal, replicate 2 (fluorescence units) | entry to resting ratio | resting calcium signal, replicate 1 (fluorescence units) | resting calcium signal, replicate 2 (fluorescence units) |
| --- | --- | --- | --- | --- | --- | --- |
| Tsf2 | DRSC09751 | 5.71e7 | 4.62e7 | – | 3.91e7 | 1.78e7 |
| upd2 | DRSC19969 | 4.59e7 | 3.42e7 | – | 2.08e7 | 1.84e7 |
| hob | DRSC08426 | 3.48e7 | 2.32e7 | – | 2.49e7 | 1.04e7 |
| CG42813 | DRSC15939 | 3.90e7 | 4.65e7 | – | 1.83e7 | 2.03e7 |
| Skp2 + CG1103 | DRSC12160 | 4.73e7 | 5.04e7 | – | 2.09e7 | 3.35e7 |
| Skp2 + CG1103 | DRSC22356 | 3.84e7 | 4.97e7 | – | 1.93e7 | 2.62e7 |
| Polr2B | DRSC16831 | 1.32e7 | 1.48e7 | – | 8.41e6 | 8.48e6 |
| yata | DRSC15408 | 4.34e7 | 5.37e7 | – | 2.17e7 | 2.33e7 |
| CG30379 | DRSC05070 | 3.17e7 | 5.33e7 | – | 1.57e7 | 2.18e7 |
| CG15141 | DRSC02441 | 3.42e7 | – | – | 1.82e7 | – |
| CG15141 | DRSC02442 | 4.24e7 | 2.76e7 | – | 1.95e7 | 1.37e7 |
| CG11149 | DRSC02130 | 3.01e7 | 3.09e7 | – | 1.44e7 | 1.53e7 |
| twit | DRSC03210 | 3.33e7 | – | – | 1.75e7 | – |
| Usp16-45 | DRSC18352 | 2.46e7 | 2.42e7 | – | 1.11e7 | 1.22e7 |
| CG5440 | DRSC00685 | 3.57e7 | 3.40e7 | – | 1.67e7 | 1.57e7 |
| vas (retired record) | DRSC22007 | 2.46e7 | 3.49e7 | – | 1.22e7 | 1.76e7 |
| mRpL28 | DRSC02724 | 3.71e7 | 3.91e7 | – | 1.65e7 | 1.52e7 |
| CG7420 | DRSC00704 | 4.89e7 | – | – | 2.59e7 | – |
| CG32773 (retired record) | DRSC17330 | 7.55e7 | 3.84e7 | – | 3.56e7 | 1.91e7 |

Continued (2 carried over from the part before).
| gene knocked down | dsRNA | calcium entry signal, replicate 1 (fluorescence units) | calcium entry signal, replicate 2 (fluorescence units) | entry to resting ratio | resting calcium signal, replicate 1 (fluorescence units) | resting calcium signal, replicate 2 (fluorescence units) |
| --- | --- | --- | --- | --- | --- | --- |
| CG7420 | DRSC00704 | 4.89e7 | – | – | 2.59e7 | – |
| CG32773 (retired record) | DRSC17330 | 7.55e7 | 3.84e7 | – | 3.56e7 | 1.91e7 |
| Nup93-2 | DRSC16221 | 3.44e7 | 4.63e7 | – | 1.77e7 | 2.37e7 |
| GstE9 | DRSC06679 | 5.99e7 | 4.64e7 | – | 2.58e7 | 2.26e7 |
| CG13360 | DRSC18536 | 5.64e7 | 3.61e7 | – | 2.46e7 | 1.84e7 |
| CG30283 | DRSC04071 | 4.58e7 | 4.78e7 | – | 2.11e7 | 2.01e7 |
| GstT3 | DRSC20541 | 4.84e7 | 5.17e7 | – | 2.30e7 | 2.17e7 |
| nanos | DRSC17018 | 3.65e7 | 4.37e7 | – | 4.81e7 | 1.90e7 |
| Cyp310a1 | DRSC03301 | 5.39e7 | – | – | 2.67e7 | – |
| baz | DRSC20309 | 4.81e7 | 3.58e7 | – | 2.67e7 | 1.64e7 |
| RpS6 | DRSC18712 | 9.91e6 | 1.27e7 | – | 7.58e6 | 8.17e6 |
| CG15715 | DRSC10216 | 4.29e7 | 6.54e7 | – | 1.95e7 | 2.60e7 |
| CG10700 | DRSC02096 | 4.27e7 | 4.52e7 | – | 2.01e7 | 1.93e7 |
| CG15461 | DRSC20532 | 4.78e7 | 4.70e7 | – | 2.15e7 | 1.87e7 |
| CG15080 | DRSC06511 | 4.80e7 | 4.17e7 | – | 1.93e7 | 1.98e7 |
| Lime | DRSC06752 | 3.85e7 | 3.52e7 | – | 1.89e7 | 1.53e7 |
| CG7320 | DRSC10810 | 3.74e7 | 7.08e7 | – | 1.96e7 | 2.64e7 |
| mu2 | DRSC08726 | 4.62e7 | 3.89e7 | – | 2.10e7 | 2.08e7 |
| mu2 | DRSC21534 | 3.97e7 | 3.79e7 | – | 2.12e7 | 1.93e7 |
| Sr-CIV | DRSC00575 | 3.57e7 | 3.42e7 | – | 1.70e7 | 1.63e7 |
| Boh1 | DRSC14487 | 5.12e7 | 5.87e7 | – | 2.20e7 | 2.74e7 |
| Mst84Dc | DRSC12599 | 3.17e7 | 2.77e7 | – | 1.59e7 | 1.36e7 |
| Naa30B | DRSC08245 | 3.66e7 | 4.16e7 | – | 1.86e7 | 1.96e7 |
| porin | DRSC03594 | 5.15e7 | – | – | 2.28e7 | – |
| CG9205 | DRSC08642 | 2.47e7 | 2.03e7 | – | 1.11e7 | 1.09e7 |
| Ephrin | DRSC17165 | 3.83e7 | 5.86e7 | 2 | 1.90e7 | 2.24e7 |
| Blos3 | DRSC09573 | 3.42e7 | 3.23e7 | – | 1.68e7 | 1.61e7 |
| CG31626 + CG8677 | DRSC21844 | 2.11e7 | 4.47e7 | – | 1.02e7 | 2.08e7 |
| CG8630 | DRSC16441 | 2.51e7 | 3.80e7 | – | 1.47e7 | 5.47e7 |
| Cyp12a5 | DRSC16621 | 3.29e7 | 4.37e7 | – | 4.72e7 | 2.02e7 |
| CG7518 | DRSC16253 | 3.59e7 | 5.46e7 | – | 1.62e7 | 2.33e7 |
| Pdhb | DRSC14420 | 3.52e7 | 5.12e7 | – | 1.71e7 | 2.33e7 |
| vex | DRSC19481 | 4.00e7 | 5.49e7 | – | 1.92e7 | 2.67e7 |
| vex | DRSC19651 | 4.05e7 | 6.00e7 | – | 1.95e7 | 2.81e7 |
| vex | DRSC21843 | 1.82e7 | 4.54e7 | – | 1.03e7 | 2.13e7 |
| CG34280 | DRSC13229 | 4.25e7 | 2.62e7 | – | 1.65e7 | 1.26e7 |
| Rh3 | DRSC16822 | 4.39e7 | 3.75e7 | – | 2.10e7 | 1.68e7 |
| CG14764 | DRSC05072 | 3.68e7 | 6.22e7 | – | 1.69e7 | 2.75e7 |
| CG14764 | DRSC06498 | 3.79e7 | 2.93e7 | – | 1.66e7 | 1.54e7 |
| CG14764 | DRSC06844 | 3.31e7 | 3.90e7 | – | 1.54e7 | 1.64e7 |
| spoon | DRSC18299 | 2.18e7 | 2.69e7 | – | 1.01e7 | 1.22e7 |
